Experimental data as given in publication PMC12750793.
These are yes or no findings as the source states them, for the method shown. In cells and extracts the contact can be indirect. Some binding calls cover weakened binding; strength is not graded here. One block for each substance: values may come before it.

Sequences of proteins named here, by UniProt entry; tags and fusion partners are left off. A change or cut given only in a name is not applied to a line headed by its entry.
UniProt O43524: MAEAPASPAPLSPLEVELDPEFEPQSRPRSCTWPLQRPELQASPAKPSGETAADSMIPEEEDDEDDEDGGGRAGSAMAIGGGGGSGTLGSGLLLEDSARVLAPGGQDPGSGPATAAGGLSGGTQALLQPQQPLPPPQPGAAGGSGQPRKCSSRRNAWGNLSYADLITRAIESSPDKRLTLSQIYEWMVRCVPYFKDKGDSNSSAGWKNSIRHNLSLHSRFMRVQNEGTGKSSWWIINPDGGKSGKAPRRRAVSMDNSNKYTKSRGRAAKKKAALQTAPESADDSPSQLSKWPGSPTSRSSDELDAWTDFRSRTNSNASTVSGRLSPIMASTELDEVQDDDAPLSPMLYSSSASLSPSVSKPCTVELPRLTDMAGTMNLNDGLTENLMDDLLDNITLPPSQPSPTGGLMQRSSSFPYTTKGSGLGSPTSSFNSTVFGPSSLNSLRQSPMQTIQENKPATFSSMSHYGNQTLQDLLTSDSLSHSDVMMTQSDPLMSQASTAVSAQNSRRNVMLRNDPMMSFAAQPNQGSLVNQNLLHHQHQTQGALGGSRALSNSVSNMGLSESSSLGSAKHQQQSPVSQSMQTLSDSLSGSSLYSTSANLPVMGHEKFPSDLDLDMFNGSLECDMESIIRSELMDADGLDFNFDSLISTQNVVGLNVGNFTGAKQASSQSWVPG
UniProt P19474: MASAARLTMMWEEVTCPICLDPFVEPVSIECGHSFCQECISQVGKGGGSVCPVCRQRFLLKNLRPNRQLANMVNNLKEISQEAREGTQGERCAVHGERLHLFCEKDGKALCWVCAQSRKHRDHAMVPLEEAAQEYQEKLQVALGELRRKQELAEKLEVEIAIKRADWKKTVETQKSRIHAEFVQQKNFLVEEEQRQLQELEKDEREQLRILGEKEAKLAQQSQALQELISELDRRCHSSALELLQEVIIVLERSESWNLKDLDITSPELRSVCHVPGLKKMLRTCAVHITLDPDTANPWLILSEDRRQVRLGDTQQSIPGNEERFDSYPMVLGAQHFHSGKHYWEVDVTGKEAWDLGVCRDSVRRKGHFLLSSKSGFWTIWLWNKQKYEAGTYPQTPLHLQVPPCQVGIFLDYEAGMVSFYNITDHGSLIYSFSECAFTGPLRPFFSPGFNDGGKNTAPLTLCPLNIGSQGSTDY

Tests used:
[1] = target: G9a (UniProt Q96KQ7); experiment: co-IP; truncated mutants of G9a and FoxO3a expressed in cells; cell line not stated
[2] = target: FoxO3a (UniProt O43524); experiment: co-IP; IP screening of multiple TRIM proteins against FoxO3a; cells not given
[3] = target: G9a (UniProt Q96KQ7); experiment: pull-down; GST pull-down; which protein carried GST and the conditions not stated
[4] = target: T1, G9a protein 680-896 amino acid (aa) (UniProt Q96KQ7); experiment: co-IP; truncated mutants of G9a and FoxO3a expressed in cells; cell line not stated
T1 sequence: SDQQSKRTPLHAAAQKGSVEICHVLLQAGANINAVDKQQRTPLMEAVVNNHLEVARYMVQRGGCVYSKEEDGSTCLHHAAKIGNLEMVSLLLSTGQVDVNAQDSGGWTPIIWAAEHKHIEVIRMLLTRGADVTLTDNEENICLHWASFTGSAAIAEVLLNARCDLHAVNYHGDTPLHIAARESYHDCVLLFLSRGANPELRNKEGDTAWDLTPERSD

[5] = target: G9a (UniProt Q96KQ7); experiment: co-IP; G9a and FoxO3a overexpressed in 293T cells

binding [1]: binds
Substance: FoxO3a protein 150-300aa (from UniProt O43524 150-300) (domain or fragment)

binding [2]: binds
Substance: TRIM21 (from UniProt P19474 1-475) (enzyme)

binding [3]: binds
Substance: FoxO3a (from UniProt O43524 1-673)

binding [4]: binds
binding [5]: binds
Substance: HA-FoxO3a, full-length (from UniProt O43524 1-673)
